Test results as given in patent publication US10709758B2 (priority 2015, dated 2020).
At least one peptide structure holds a part that was inferred or is arguable (an end, a ring closure or a residue).

How the values were obtained:
TcdB1 [1] = target: T1, TcdB1 (Clostridioides difficile, UniProt P18177); parameters: species or system Clostridium difficile
TcdB1 [2] = target: T1, TcdB1; format: cell-based, Clostridium difficile
TcdA = TcdA (Clostridioides difficile, UniProt P16154); format: cell-based, C. difficile
TcdB1 [3] = target: T1, TcdB1; format: biochemical, Clostridium difficile
TcdB1 [4] = target: T1, TcdB1; format: cell-based, Clostridium difficile; remark: listed apart in the source

For CC[C@H](C)[C@H](NC(=O)[C@H](CCCCN)NC(=O)[C@H](CC(=O)O)NC(=O)[C@H](CO)NC(=O)[C@@H](NC(=O)[C@@H](NC(=O)[C@H](CC(N)=O)NC(=O)CNC(=O)[C@H](CCCCN)NC(=O)[C@H](Cc1ccccc1)NC(=O)[C@@H](NC(=O)[C@@H](N)CC(N)=O)C(C)C)[C@@H](C)O)[C@@H](C)CC)C(=O)N[C@@H](CO)C(=O)N[C@@H](Cc1ccccc1)C(=O)N[C@@H](CC(N)=O)C(=O)N[C@@H](Cc1ccccc1)C(=O)N[C@@H](CO)C(=O)N[C@@H](CC(=O)O)C(=O)N[C@@H](CCCCN)C(=O)O [PepB2], the “melting temperature (Tm) of TcdB in the presence of peptide” value (TcdB1 [1]) was 40.8 °C, the “TcdBAF488 staining pattern in live cells” value (TcdB1 [2]) was “form soluble aggregates that are unable to properly enter cells” and the “toxicity exhibited by TcdA toxin” value (TcdA) was “did not reduce the toxicity”. The “IP6-induced TcdB autoproteolysis” value (TcdB1 [3]) was “induced an increase in proteolytic cleavage”, the “TcdB interaction with cells (TcdBAF488, before quenching)” value (TcdB1 [4]) was “enhanced” and the “cellular uptake of TcdBAF488 (after trypan blue quenching)” value (TcdB1 [4]) was “decrease the uptake of TcdBAF488”.
